The values that follow come from the supplement of paper PMC6411743.

By UniProt entry, the sequences of proteins in these tests, tags left out. Where a name states a change or a piece, a line headed by the entry shows the natural chain unless it says otherwise.
UniProt Q9BPZ7, whole entry: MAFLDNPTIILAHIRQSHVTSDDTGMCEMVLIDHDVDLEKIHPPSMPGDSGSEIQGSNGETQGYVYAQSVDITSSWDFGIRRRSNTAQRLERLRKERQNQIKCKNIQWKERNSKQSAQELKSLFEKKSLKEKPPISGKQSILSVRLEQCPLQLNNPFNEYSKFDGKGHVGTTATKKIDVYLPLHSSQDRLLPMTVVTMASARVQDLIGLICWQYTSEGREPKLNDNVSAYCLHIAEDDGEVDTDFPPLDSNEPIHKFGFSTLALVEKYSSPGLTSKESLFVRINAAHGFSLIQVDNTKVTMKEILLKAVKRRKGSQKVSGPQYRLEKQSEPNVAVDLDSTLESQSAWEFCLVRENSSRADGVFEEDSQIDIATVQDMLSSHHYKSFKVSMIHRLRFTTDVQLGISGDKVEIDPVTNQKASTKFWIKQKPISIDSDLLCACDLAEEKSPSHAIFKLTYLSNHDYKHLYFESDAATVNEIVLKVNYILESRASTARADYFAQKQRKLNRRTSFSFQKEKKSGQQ
UniProt Q9BQS8: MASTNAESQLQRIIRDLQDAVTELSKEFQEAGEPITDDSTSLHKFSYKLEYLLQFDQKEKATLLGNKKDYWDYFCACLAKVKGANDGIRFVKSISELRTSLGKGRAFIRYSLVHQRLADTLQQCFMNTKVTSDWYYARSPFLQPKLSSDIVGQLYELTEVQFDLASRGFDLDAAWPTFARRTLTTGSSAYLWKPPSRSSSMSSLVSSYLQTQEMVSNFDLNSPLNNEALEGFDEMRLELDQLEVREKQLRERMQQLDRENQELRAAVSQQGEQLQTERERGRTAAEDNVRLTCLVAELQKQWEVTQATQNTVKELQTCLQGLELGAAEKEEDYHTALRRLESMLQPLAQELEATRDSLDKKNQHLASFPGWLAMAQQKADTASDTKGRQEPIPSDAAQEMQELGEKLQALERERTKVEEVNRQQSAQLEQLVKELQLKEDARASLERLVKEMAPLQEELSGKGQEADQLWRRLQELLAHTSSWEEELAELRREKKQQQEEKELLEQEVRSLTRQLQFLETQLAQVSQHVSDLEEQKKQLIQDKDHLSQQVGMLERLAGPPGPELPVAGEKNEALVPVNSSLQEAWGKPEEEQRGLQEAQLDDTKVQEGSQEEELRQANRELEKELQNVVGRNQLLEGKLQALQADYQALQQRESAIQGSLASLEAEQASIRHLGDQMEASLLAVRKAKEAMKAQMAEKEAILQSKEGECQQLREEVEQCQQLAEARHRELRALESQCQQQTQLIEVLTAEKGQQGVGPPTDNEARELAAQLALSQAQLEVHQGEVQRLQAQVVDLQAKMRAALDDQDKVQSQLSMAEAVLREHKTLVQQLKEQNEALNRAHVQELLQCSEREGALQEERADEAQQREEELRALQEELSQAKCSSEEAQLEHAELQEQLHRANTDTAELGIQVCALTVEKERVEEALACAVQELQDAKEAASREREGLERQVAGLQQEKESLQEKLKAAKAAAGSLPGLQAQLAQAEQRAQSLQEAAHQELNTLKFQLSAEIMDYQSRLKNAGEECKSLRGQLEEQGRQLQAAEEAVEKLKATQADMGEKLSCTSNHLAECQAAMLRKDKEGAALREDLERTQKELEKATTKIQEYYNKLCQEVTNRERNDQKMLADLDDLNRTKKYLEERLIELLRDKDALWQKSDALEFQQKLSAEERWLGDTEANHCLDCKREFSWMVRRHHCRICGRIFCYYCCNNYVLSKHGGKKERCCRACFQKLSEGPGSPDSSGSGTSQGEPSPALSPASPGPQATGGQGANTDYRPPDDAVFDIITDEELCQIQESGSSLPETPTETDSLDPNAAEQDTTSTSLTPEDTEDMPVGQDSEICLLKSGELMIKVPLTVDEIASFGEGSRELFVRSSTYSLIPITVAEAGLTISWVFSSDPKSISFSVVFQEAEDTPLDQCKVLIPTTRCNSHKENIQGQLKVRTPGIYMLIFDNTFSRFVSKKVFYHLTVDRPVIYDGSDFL
UniProt Q9BPW8: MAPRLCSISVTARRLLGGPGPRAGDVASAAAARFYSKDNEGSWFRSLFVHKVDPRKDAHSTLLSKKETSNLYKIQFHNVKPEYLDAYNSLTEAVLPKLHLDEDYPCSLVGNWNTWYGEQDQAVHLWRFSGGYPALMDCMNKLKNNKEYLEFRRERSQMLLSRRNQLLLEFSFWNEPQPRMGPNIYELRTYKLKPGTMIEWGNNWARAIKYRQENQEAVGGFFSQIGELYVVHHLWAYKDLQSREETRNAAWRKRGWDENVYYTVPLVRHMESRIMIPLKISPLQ
UniProt Q9BSB4: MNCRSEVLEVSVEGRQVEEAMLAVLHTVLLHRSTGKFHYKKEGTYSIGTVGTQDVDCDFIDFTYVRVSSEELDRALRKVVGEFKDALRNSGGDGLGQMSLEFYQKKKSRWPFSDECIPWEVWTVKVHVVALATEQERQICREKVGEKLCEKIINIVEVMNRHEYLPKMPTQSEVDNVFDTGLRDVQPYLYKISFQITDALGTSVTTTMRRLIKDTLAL
UniProt Q9BTV5: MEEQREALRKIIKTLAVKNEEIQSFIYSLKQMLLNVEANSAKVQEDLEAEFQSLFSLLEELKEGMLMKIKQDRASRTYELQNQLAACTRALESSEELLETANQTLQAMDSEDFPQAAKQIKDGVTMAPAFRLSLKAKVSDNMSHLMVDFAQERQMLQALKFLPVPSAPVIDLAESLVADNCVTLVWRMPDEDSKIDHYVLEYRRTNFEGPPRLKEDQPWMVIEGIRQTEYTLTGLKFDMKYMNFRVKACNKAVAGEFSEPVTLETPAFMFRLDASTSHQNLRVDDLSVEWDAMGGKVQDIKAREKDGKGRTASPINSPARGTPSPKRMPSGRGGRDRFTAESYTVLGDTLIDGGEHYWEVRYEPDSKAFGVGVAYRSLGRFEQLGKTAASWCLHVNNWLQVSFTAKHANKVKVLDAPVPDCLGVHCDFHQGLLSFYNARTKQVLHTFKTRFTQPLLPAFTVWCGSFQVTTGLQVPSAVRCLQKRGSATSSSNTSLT
UniProt Q99436: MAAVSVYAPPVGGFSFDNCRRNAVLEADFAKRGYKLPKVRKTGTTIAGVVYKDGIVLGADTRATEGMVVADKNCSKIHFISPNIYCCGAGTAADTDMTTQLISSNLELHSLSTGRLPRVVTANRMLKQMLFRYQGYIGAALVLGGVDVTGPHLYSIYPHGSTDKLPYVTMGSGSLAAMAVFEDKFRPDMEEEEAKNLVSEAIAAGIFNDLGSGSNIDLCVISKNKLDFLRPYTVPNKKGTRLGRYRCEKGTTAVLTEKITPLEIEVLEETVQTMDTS
UniProt Q99442: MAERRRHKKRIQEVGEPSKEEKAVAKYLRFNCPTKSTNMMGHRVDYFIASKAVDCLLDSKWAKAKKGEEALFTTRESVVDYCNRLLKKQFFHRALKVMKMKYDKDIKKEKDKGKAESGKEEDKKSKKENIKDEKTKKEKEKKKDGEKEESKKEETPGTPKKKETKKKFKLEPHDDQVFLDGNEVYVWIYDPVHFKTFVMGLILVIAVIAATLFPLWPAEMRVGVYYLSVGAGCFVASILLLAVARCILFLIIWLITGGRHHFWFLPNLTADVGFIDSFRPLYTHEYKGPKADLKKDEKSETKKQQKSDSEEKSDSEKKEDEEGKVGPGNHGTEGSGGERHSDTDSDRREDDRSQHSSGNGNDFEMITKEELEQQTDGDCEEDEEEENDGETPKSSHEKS
UniProt Q9BZ95: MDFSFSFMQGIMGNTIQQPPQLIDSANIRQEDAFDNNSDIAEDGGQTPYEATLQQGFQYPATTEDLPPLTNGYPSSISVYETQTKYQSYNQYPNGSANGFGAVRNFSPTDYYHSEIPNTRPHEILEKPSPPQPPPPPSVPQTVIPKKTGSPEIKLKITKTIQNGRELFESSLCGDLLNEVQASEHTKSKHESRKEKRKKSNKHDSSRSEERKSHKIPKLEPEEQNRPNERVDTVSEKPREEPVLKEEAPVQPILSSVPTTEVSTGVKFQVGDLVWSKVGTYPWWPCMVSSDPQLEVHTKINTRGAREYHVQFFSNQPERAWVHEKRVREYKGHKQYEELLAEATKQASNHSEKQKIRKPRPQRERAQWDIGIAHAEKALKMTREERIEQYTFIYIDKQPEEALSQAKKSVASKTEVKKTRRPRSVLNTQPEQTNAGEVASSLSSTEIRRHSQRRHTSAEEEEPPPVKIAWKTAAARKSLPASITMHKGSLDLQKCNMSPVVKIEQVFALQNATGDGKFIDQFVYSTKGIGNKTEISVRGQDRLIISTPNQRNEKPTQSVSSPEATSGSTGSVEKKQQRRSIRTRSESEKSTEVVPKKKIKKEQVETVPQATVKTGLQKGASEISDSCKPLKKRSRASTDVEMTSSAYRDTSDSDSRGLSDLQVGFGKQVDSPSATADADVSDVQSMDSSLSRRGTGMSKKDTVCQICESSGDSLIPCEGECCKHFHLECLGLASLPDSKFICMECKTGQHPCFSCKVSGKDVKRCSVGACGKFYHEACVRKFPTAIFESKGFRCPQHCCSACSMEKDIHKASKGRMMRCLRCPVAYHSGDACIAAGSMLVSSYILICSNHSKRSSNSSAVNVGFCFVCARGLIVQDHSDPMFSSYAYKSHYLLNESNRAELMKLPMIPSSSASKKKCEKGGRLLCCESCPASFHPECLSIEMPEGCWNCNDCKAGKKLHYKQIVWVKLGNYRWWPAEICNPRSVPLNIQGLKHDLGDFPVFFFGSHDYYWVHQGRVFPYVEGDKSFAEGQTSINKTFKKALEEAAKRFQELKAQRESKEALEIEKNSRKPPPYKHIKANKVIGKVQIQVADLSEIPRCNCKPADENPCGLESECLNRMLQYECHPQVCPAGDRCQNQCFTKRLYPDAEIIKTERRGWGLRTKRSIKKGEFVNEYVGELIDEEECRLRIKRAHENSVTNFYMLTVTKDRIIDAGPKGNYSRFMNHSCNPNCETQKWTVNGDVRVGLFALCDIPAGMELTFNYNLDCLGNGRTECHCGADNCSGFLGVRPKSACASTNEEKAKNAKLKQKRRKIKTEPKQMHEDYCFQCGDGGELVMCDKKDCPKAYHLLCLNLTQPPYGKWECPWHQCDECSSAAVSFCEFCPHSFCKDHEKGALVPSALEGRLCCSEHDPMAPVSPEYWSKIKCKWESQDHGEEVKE
UniProt Q9BZL4: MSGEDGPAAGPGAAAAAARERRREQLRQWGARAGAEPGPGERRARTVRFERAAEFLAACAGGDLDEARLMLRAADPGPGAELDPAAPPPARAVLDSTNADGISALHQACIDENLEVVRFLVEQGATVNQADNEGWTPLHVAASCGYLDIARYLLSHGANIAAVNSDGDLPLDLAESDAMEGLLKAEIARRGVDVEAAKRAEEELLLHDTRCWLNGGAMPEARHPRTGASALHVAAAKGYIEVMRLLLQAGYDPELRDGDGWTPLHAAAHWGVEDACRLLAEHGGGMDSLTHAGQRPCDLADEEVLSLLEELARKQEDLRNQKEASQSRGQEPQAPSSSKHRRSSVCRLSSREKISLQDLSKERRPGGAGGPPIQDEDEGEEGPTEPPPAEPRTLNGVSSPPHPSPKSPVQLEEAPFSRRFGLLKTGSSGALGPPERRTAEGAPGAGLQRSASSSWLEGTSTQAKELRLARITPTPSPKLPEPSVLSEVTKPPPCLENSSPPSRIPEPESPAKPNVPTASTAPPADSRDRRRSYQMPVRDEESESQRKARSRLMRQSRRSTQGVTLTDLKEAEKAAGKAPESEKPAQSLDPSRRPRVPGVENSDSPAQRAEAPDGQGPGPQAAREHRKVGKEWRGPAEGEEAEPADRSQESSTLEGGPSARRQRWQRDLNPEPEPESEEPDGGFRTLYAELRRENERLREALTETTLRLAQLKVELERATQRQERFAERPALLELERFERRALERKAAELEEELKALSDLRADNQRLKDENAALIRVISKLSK
UniProt Q9BT30: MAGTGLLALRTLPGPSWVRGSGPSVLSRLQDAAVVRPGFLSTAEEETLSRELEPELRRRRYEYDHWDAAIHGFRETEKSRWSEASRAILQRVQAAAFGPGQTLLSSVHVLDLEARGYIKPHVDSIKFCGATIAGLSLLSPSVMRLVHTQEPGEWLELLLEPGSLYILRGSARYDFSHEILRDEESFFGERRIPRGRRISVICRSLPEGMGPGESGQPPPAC
UniProt Q99714: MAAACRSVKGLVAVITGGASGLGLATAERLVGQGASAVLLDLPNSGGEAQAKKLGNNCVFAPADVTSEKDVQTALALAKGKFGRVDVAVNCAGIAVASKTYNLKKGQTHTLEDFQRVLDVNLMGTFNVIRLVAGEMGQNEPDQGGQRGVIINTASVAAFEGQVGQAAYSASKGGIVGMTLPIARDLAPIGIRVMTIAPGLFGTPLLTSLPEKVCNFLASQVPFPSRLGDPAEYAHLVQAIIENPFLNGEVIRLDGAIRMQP
UniProt Q99470: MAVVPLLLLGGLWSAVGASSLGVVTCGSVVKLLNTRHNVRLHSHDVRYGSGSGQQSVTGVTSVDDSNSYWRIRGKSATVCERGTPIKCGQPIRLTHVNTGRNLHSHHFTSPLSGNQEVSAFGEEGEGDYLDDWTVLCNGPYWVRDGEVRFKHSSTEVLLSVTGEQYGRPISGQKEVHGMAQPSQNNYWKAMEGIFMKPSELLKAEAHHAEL

± gives the standard deviation of the averaged measurements. Only a part is listed here, and it is no random draw.

Compound in the first experiment: Nc1ncnc2c1ncn2[C@@H]1O[C@H](COP(=O)(O)OP(=O)(O)OP(=O)(O)O)[C@@H](O)[C@H]1O [adenosine triphosphate]
Kind of experiment: NP40-soluble protein abundance relative to vehicle (solubility fold change) (ratio); higher = more soluble protein in presence of ATP. As to conditions: concentration: 1mM. The method in brief: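 Values are fold changes against the detergent-processed vehicle, based on vsn-normalised intensities. Jurkat crude lysate was treated at eight concentrations from 0.1 to 10 mM (10 min at room temperature, then 3 min at 37 °C), solubilised with 0.8% NP40 and benzonase, ultracentrifuged and analysed by TMT-labelled LC-MS/MS over three independent experiments.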
For the target HDHD3 (UniProt Q9BSH5), the NP40-soluble protein abundance is 1.03 ± 0.074.

As for UniProt Q9BRA0 and related entries, the NP40-soluble protein abundance turned out to be 0.904 ± 0.066.

Consider CARD11 (UniProt Q9BXL7), for which the NP40-soluble protein abundance worked out at 1.01 ± 0.059.

Regarding UniProt Q9BW91 and related entries, the NP40-soluble protein abundance was 1.04 ± 0.073.

As to UniProt Q9BWS9 and related entries, the NP40-soluble protein abundance turned out to be 1.03 ± 0.1.

As for UniProt Q99549 and related entries, the NP40-soluble protein abundance is 1.02 ± 0.088.

Turning to UniProt Q9BQ24 and related entries, the NP40-soluble protein abundance came out at 1.1 ± 0.18.

Consider UniProt Q9BRX8 and related entries, for which the NP40-soluble protein abundance was found to be 1.01 ± 0.14.

For UniProt Q9BPZ7 and related entries, the NP40-soluble protein abundance is 1.02 ± 0.085.

Turning to UniProt Q9BQF6 and related entries, the NP40-soluble protein abundance came out at 1.13 ± 0.072.

Regarding UniProt Q9BQS8 and related entries, the NP40-soluble protein abundance is 0.983 ± 0.033.

Turning to PIK3R4 (UniProt Q99570), the NP40-soluble protein abundance was 1.01 ± 0.052.

For NIPSNAP1 (UniProt Q9BPW8), the NP40-soluble protein abundance was found to be 1.03 ± 0.12.

As to NLN (UniProt Q9BYT8), the NP40-soluble protein abundance came out at 1.01 ± 0.084.

Consider SIKE1 (UniProt Q9BRV8), for which the NP40-soluble protein abundance came to 0.917 ± 0.13.

With UniProt Q9BSB4, the NP40-soluble protein abundance is 1.01 ± 0.17.

For MACROD1 (UniProt Q9BQ69), the NP40-soluble protein abundance was 0.994 ± 0.074.

For UniProt Q9BUT1 and related entries, the NP40-soluble protein abundance came out at 0.933 ± 0.036.

As for FSD1 (UniProt Q9BTV5), the NP40-soluble protein abundance worked out at 1.01 ± 0.078.

PSMB7 (UniProt Q99436): the NP40-soluble protein abundance came out at 0.947 ± 0.061.

For the target SEC62 (UniProt Q99442), the NP40-soluble protein abundance stood at 0.925 ± 0.063.

For the target “UniProt Q9BZ29-4|A0A088AWN3|A0A0A0MRA7|A0A0A0MSY4|Q9BZ29 and related entries”, the NP40-soluble protein abundance came out at 1.08 ± 0.13.

Consider PAIP2 (UniProt Q9BPZ3), for which the NP40-soluble protein abundance amounted to 0.949 ± 0.068.

Regarding UniProt Q9BZE9 and related entries, the NP40-soluble protein abundance came to 0.945 ± 0.02.

As for UniProt Q9BWG4 and related entries, the NP40-soluble protein abundance amounted to 0.974 ± 0.055.

On to MAK16 (UniProt Q9BXY0), for which the NP40-soluble protein abundance was 1 ± 0.064.

Turning to UniProt Q9BZ95 and related entries, the NP40-soluble protein abundance came to 1.21 ± 0.027.

Regarding UniProt Q9BZL4 and related entries, the NP40-soluble protein abundance is 0.964 ± 0.043.

Turning to ALKBH7 (UniProt Q9BT30), the NP40-soluble protein abundance turned out to be 1.04 ± 0.13.

Regarding NUP85 (UniProt Q9BW27), the NP40-soluble protein abundance came out at 1.03 ± 0.12.

Consider CABLES2 (UniProt Q9BTV7), for which the NP40-soluble protein abundance is 0.952 ± 0.19.

Regarding NABP2 (UniProt Q9BQ15), the NP40-soluble protein abundance turned out to be 0.991 ± 0.15.

As for UniProt Q9BVP2 and related entries, the NP40-soluble protein abundance came to 1.23 ± 0.076.

As to UniProt Q99714 and related entries, the NP40-soluble protein abundance amounted to 0.961 ± 0.036.

In the case of SDF2 (UniProt Q99470), the NP40-soluble protein abundance was determined as 1.02 ± 0.069.

Staying with this experiment, now noted: concentration: 2mM.
HDHD3 (UniProt Q9BSH5): the NP40-soluble protein abundance is 1.02 ± 0.084.

As for UniProt Q9BRA0 and related entries, the NP40-soluble protein abundance stood at 0.925 ± 0.065.

Regarding CARD11 (UniProt Q9BXL7), the NP40-soluble protein abundance is 1 ± 0.052.

Regarding UniProt Q9BW91 and related entries, the NP40-soluble protein abundance was 1.03 ± 0.069.

Consider UniProt Q9BWS9 and related entries, for which the NP40-soluble protein abundance was found to be 1.01 ± 0.074.

For the target UniProt Q99549 and related entries, the NP40-soluble protein abundance amounted to 1.03 ± 0.027.

As to UniProt Q9BQ24 and related entries, the NP40-soluble protein abundance came out at 1.07 ± 0.069.

UniProt Q9BRX8 and related entries: the NP40-soluble protein abundance turned out to be 0.976 ± 0.078.

Consider UniProt Q9BPZ7 and related entries, for which the NP40-soluble protein abundance worked out at 1.13 ± 0.31.

Consider UniProt Q9BQF6 and related entries, for which the NP40-soluble protein abundance is 1.14 ± 0.074.

Take UniProt Q9BQS8 and related entries: the NP40-soluble protein abundance is 0.974 ± 0.01.

For PIK3R4 (UniProt Q99570), the NP40-soluble protein abundance came out at 0.996 ± 0.018.

As to NIPSNAP1 (UniProt Q9BPW8), the NP40-soluble protein abundance was determined as 0.946 ± 0.061.

Turning to NLN (UniProt Q9BYT8), the NP40-soluble protein abundance is 0.999 ± 0.067.

On to SIKE1 (UniProt Q9BRV8), for which the NP40-soluble protein abundance was determined as 0.856 ± 0.079.

Turning to UniProt Q9BSB4, the NP40-soluble protein abundance came to 1.02 ± 0.091.

For the target MACROD1 (UniProt Q9BQ69), the NP40-soluble protein abundance was found to be 0.93 ± 0.056.

For UniProt Q9BUT1 and related entries, the NP40-soluble protein abundance amounted to 0.916 ± 0.026.

Take FSD1 (UniProt Q9BTV5): the NP40-soluble protein abundance came to 1.02 ± 0.049.

As for PSMB7 (UniProt Q99436), the NP40-soluble protein abundance was determined as 0.89 ± 0.015.

On to SEC62 (UniProt Q99442), for which the NP40-soluble protein abundance turned out to be 0.939 ± 0.024.

Turning to “UniProt Q9BZ29-4|A0A088AWN3|A0A0A0MRA7|A0A0A0MSY4|Q9BZ29 and related entries”, the NP40-soluble protein abundance was 0.978 ± 0.021.

Take PAIP2 (UniProt Q9BPZ3): the NP40-soluble protein abundance amounted to 0.946 ± 0.048.

As to UniProt Q9BZE9 and related entries, the NP40-soluble protein abundance stood at 0.936 ± 0.053.

On to UniProt Q9BWG4 and related entries, for which the NP40-soluble protein abundance came out at 1.07 ± 0.17.

Turning to MAK16 (UniProt Q9BXY0), the NP40-soluble protein abundance was 1.07 ± 0.09.

On to UniProt Q9BZ95 and related entries, for which the NP40-soluble protein abundance worked out at 1.55 ± 0.19.

For the target UniProt Q9BZL4 and related entries, the NP40-soluble protein abundance is 0.957 ± 0.031.

For ALKBH7 (UniProt Q9BT30), the NP40-soluble protein abundance amounted to 1.04 ± 0.15.

For NUP85 (UniProt Q9BW27), the NP40-soluble protein abundance was determined as 1.01 ± 0.091.

Consider CABLES2 (UniProt Q9BTV7), for which the NP40-soluble protein abundance was 1.02 ± 0.12.

For the target NABP2 (UniProt Q9BQ15), the NP40-soluble protein abundance is 0.945 ± 0.13.

As for UniProt Q9BVP2 and related entries, the NP40-soluble protein abundance came out at 1.27 ± 0.068.

On to UniProt Q99714 and related entries, for which the NP40-soluble protein abundance was determined as 0.979 ± 0.017.

Turning to SDF2 (UniProt Q99470), the NP40-soluble protein abundance is 0.975 ± 0.013.

The experiment is the same for the next values; noted with them: concentration: 4mM.
Turning to HDHD3 (UniProt Q9BSH5), the NP40-soluble protein abundance turned out to be 0.9699 ± 0.0012.

With UniProt Q9BRA0 and related entries, the NP40-soluble protein abundance was 0.894 ± 0.052.

Take CARD11 (UniProt Q9BXL7): the NP40-soluble protein abundance came out at 1.01 ± 0.029.

For the target UniProt Q9BW91 and related entries, the NP40-soluble protein abundance worked out at 1.05 ± 0.12.

UniProt Q9BWS9 and related entries: the NP40-soluble protein abundance was found to be 1.02 ± 0.066.

In the case of UniProt Q99549 and related entries, the NP40-soluble protein abundance is 1.05 ± 0.048.

In the case of UniProt Q9BQ24 and related entries, the NP40-soluble protein abundance amounted to 1.05 ± 0.075.

Turning to UniProt Q9BRX8 and related entries, the NP40-soluble protein abundance was 0.96 ± 0.071.

Regarding UniProt Q9BPZ7 and related entries, the NP40-soluble protein abundance stood at 1.06 ± 0.069.

As to UniProt Q9BQF6 and related entries, the NP40-soluble protein abundance was determined as 1.13 ± 0.13.

Regarding UniProt Q9BQS8 and related entries, the NP40-soluble protein abundance was determined as 0.953 ± 0.032.

Take PIK3R4 (UniProt Q99570): the NP40-soluble protein abundance worked out at 1 ± 0.046.

NIPSNAP1 (UniProt Q9BPW8): the NP40-soluble protein abundance came to 0.959 ± 0.058.

For NLN (UniProt Q9BYT8), the NP40-soluble protein abundance was 0.983 ± 0.092.

Take SIKE1 (UniProt Q9BRV8): the NP40-soluble protein abundance was determined as 0.944 ± 0.066.

Turning to UniProt Q9BSB4, the NP40-soluble protein abundance came out at 1.03 ± 0.11.

For MACROD1 (UniProt Q9BQ69), the NP40-soluble protein abundance amounted to 0.903 ± 0.12.

With UniProt Q9BUT1 and related entries, the NP40-soluble protein abundance stood at 0.915 ± 0.022.

Consider FSD1 (UniProt Q9BTV5), for which the NP40-soluble protein abundance stood at 1.03 ± 0.086.

For the target PSMB7 (UniProt Q99436), the NP40-soluble protein abundance was 0.837 ± 0.042.

For the target SEC62 (UniProt Q99442), the NP40-soluble protein abundance amounted to 0.906 ± 0.041.

Turning to “UniProt Q9BZ29-4|A0A088AWN3|A0A0A0MRA7|A0A0A0MSY4|Q9BZ29 and related entries”, the NP40-soluble protein abundance was 0.973 ± 0.076.

As for PAIP2 (UniProt Q9BPZ3), the NP40-soluble protein abundance worked out at 0.91 ± 0.054.

For the target UniProt Q9BZE9 and related entries, the NP40-soluble protein abundance came to 0.933 ± 0.049.

On to UniProt Q9BWG4 and related entries, for which the NP40-soluble protein abundance was 1.06 ± 0.045.

Turning to MAK16 (UniProt Q9BXY0), the NP40-soluble protein abundance is 1.06 ± 0.099.

UniProt Q9BZ95 and related entries: the NP40-soluble protein abundance stood at 1.3 ± 0.044.

Turning to UniProt Q9BZL4 and related entries, the NP40-soluble protein abundance was found to be 0.992 ± 0.041.

As for ALKBH7 (UniProt Q9BT30), the NP40-soluble protein abundance worked out at 1.01 ± 0.087.

Regarding NUP85 (UniProt Q9BW27), the NP40-soluble protein abundance was 1.03 ± 0.078.

For the target CABLES2 (UniProt Q9BTV7), the NP40-soluble protein abundance was 1.05 ± 0.17.

Regarding NABP2 (UniProt Q9BQ15), the NP40-soluble protein abundance came out at 0.98 ± 0.22.

As to UniProt Q9BVP2 and related entries, the NP40-soluble protein abundance was determined as 1.33 ± 0.071.

Consider UniProt Q99714 and related entries, for which the NP40-soluble protein abundance was determined as 0.952 ± 0.011.

SDF2 (UniProt Q99470): the NP40-soluble protein abundance is 1 ± 0.018.
